# Test results taken from PubChem BioAssay AID540276 (National Center for Advancing Translational Sciences (NCATS), 2011).
# Among all 300,000 compounds or so, about 5,400 (1.8%) were called active. Inconclusive results, whose numbers are uncertain, are shown with a selection of clear calls. The call rests on the fitted dose curve; tested in HEK293 cells. Where the call is inconclusive, the potency comes from a doubtful curve fit.
# Assay: qHTS for inhibitors of binding or entry into cells for Marburg Virus
# Settings: Marburg virus pseudotyped entry inhibition, cell reporter; series mostly up to 37.8 µM
# Potency means the concentration at half of the fitted maximal effect.
row,Compound,Potency
1,O=C(O)C1CCCN1S(=O)(=O)c1cc(Cl)ccc1Cl (stereo not given),"inconclusive: 2.06 µM [activator, full curve, poor fit]"
2,Clc1ccc(Cn2c(/C=C/c3ccco3)nc3ccccc32)cc1,"inconclusive: 1.58 µM [inhibitor, partial curve, poor fit]"
3,N/C(=N\OC(=O)Cc1ccc(Cl)cc1)c1ccncc1,"inconclusive: 1.26 µM [inhibitor, single point]"
4,O=C1CC(Sc2ncccn2)C(=O)N1c1ccccc1 (stereo not given),inactive
5,O=C(COc1ccc(Br)cc1F)NCC1(N2CCCCC2)CCCCC1,active: 10 µM
6,C(=N\Nc1ccc2ccccc2n1)/c1ccc2c(c1)OCO2,"inconclusive: 6.31 µM [inhibitor, full curve, poor fit]"
7,COc1cc(NC(=O)C2CCCN(c3ncnc4c3nc3n4CCCCC3)C2)cc(OC)c1OC (stereo not given),"inconclusive: 5.01 µM [activator, partial curve, poor fit]"
8,CCCCOc1ccccc1CC1C(=O)Nc2ccc(Br)cc21 (stereo not given),"inconclusive: 35.5 µM [inhibitor, single point]"
9,O=C(N/N=C/c1ccc(OC(F)F)cc1)c1ccc(Br)cc1,inactive
10,Cc1cccc(NC(=S)Nc2ccccn2)c1,"inconclusive: 6.31 µM [activator, single point]"
11,Cc1ccc(NC(=O)/C=C/c2ccc3c(c2)OCO3)nc1,inactive
12,O=[N+]([O-])c1cc(S(=O)(=O)C(F)(F)F)ccc1N1CCN(c2ccccc2)CC1,"inconclusive: 0.082 µM [inhibitor, full curve, poor fit]"
13,O=c1[nH]c(C2CCN(S(=O)(=O)c3ccc(S(=O)(=O)NC4CC4)cc3)CC2)nc2c1nnn2Cc1cccc(F)c1,"inconclusive: 35.5 µM [inhibitor, single point]"
14,COc1ccc(-c2cc(C(F)(F)F)nc(S(=O)(=O)CCCC(=O)Nc3cccnc3Cl)n2)cc1OC,"inconclusive: 12.6 µM [inhibitor, partial curve, poor fit]"
15,COc1cc(OC)cc(C(=O)N[C@H](C(=O)NC2CCCc3ccccc32)C(C)C)c1 (stereo not given in full),"inconclusive: 1.26 µM [inhibitor, partial curve, poor fit]"
16,Cn1c(NCc2ccccc2)nc2c1c(=O)n(Cc1ccc(Br)cc1)c(=O)n2C,"inconclusive: 25.1 µM [inhibitor, partial curve, poor fit]"
17,O=C1CCCC2=C1C(c1ccccc1)C1=C(CCCC1=O)O2,inactive
18,Cc1c(-c2nc(-c3ccc(C(F)(F)F)cc3)no2)n(C)oc1=O,"inconclusive: 10 µM [inhibitor, partial curve]"
19,CCOC(=O)N1CCC(NS(=O)(=O)c2ccc3c(c2)CCN3C(C)=O)CC1,"inconclusive: 12.6 µM [inhibitor, partial curve, poor fit]"
20,CC1CCc2sc(C(=O)N/N=C/c3ccc([N+](=O)[O-])cc3)cc2C1 (stereo not given),"inconclusive: 1.26 µM [inhibitor, single point]"
21,CCc1ccc(CN(C)C(=O)c2cccc(S(=O)(=O)Nc3ccccc3OC)c2)cc1,"inconclusive: 12.6 µM [inhibitor, partial curve]"
22,OC(CN1C2=NCCCN2c2ccccc21)c1ccc2c(c1)OCO2 (stereo not given),inactive

row,Compound,Potency
1,Cc1ccc(CSc2nc3ccccc3c(=O)n2C)cc1,"inconclusive: 0.708 µM [inhibitor, partial curve, poor fit]"
2,O=C(CN1CCN(S(=O)(=O)N2CCCCC2)CC1)Nc1ccc(Cl)c(Cl)c1,inactive
3,Cc1cc(C)c(C(=O)CN2C(=O)NC3(CCCCCC3)C2=O)cc1C,inactive
4,Cc1cc(C)nc(/N=C(\NC(=O)C(C)(C)C)Nc2ccc(F)cc2)n1,"inconclusive: 3.16 µM [activator, partial curve]"
5,Cc1cc(N/N=C/c2ccc(F)cc2)nc(-n2nc(C)cc2C)n1,"inconclusive: 3.16 µM [inhibitor, full curve, poor fit]"
6,COc1ccccc1NC(=S)N1CCN(c2nc(-c3ccccc3)cs2)CC1,inactive
7,CC1CCCN(C(=O)c2ccc(S(=O)(=O)N3CCC(c4nc5ccccc5s4)CC3)cc2)C1 (stereo not given),"inconclusive: 13 µM [inhibitor, partial curve, poor fit]"
8,CSC1=N/C(=C\c2ccccc2F)C(=O)S1,"inconclusive: 7.08 µM [inhibitor, full curve, poor fit]"
9,O=C(CCCN1C(=O)/C(=C/c2cccs2)SC1=S)Nc1ccc(O)cc1,"inconclusive: 35.5 µM [inhibitor, single point]"
10,Cc1cccn2c(=O)c(C(=O)NCc3ccc(F)cc3)c(O)nc12,inactive
11,Cc1[nH][nH]c(=O)c1C(c1c(C)[nH][nH]c1=O)c1cn(Cc2ccc(F)cc2)c2ccccc12,inactive
12,COc1ccc(CN2CCCC(CNC(=O)c3ccc(F)cc3)C2)c(F)c1 (stereo not given),"inconclusive: 14.1 µM [inhibitor, single point]"
13,CCOC(=O)c1c(-c2ccc(OC)cc2)oc2ccc(OCc3ccccc3C)cc12,inactive
14,Oc1ccc(-c2n[nH]c(=S)n2-c2ccc3c(c2)OCCO3)c(O)c1,"inconclusive: 6.31 µM [inhibitor, full curve, poor fit]"
15,Cc1ccc(-c2cn3c(n2)SCC3)cc1,"inconclusive: 31.6 µM [inhibitor, partial curve, poor fit]"
16,CCOC(=O)c1c(C)[nH]c(C)c1C(=O)COC(=O)c1cc2ccccc2cc1OC,"inconclusive: 11.6 µM [inhibitor, partial curve]"
17,N#Cc1sc2nc(C3CC3)cc(-c3ccc(Cl)cc3)c2c1N,"inconclusive: 35.5 µM [inhibitor, single point]"
18,O=S(=O)(c1ccc(-c2csc(-c3cccnc3)n2)cc1)N1CCCCC1,"inconclusive: 29.1 µM [inhibitor, single point]"
19,CN(C)CCCN(C(=O)c1ccc(S(=O)(=O)N2CCCCCC2)cc1)c1nc2ccc(F)cc2s1,"inconclusive: 11.2 µM [inhibitor, partial curve, poor fit]"
20,CC(C)(C)c1ccc(-c2nnc3sc(-c4ccncc4)nn23)cc1,inactive
21,COC(=O)c1cc2sc(C)cc2n1Cc1cccc(OC)c1,"inconclusive: 7.08 µM [inhibitor, partial curve, poor fit]"
22,CN=C(NC1CCCCC1)c1ccc(Cl)cc1,"inconclusive: 0.0146 µM [inhibitor, full curve, poor fit]"

# Fetched one by one from above:
row,Compound,Potency
12,COc1ccc(CN2CCCC(CNC(=O)c3ccc(F)cc3)C2)c(F)c1 (stereo not given),"inconclusive: 14.1 µM [inhibitor, single point]"
2,Clc1ccc(Cn2c(/C=C/c3ccco3)nc3ccccc32)cc1,"inconclusive: 1.58 µM [inhibitor, partial curve, poor fit]"
21,CCc1ccc(CN(C)C(=O)c2cccc(S(=O)(=O)Nc3ccccc3OC)c2)cc1,"inconclusive: 12.6 µM [inhibitor, partial curve]"

# Remaining list, next part:

row,Compound,Potency
1,COc1ccc(Cl)cc1NC(=O)CN(C)C(=O)c1ccc(OCc2ccccc2)c(OC)c1,"inconclusive: 25.1 µM [inhibitor, single point]"
2,Fc1ccc(-c2nnsc2Sc2ccccn2)cc1,"inconclusive: 12.6 µM [activator, partial curve]"
3,OC(c1ccccc1)(c1ccccc1)C1CN2CCC1CC2 (stereo not given),"inconclusive: 35.5 µM [inhibitor, single point]"
4,O=C(CSc1nnc(SCc2ccccc2Cl)s1)N/N=C/c1c[nH]c2ccccc12,"inconclusive: 15.8 µM [inhibitor, single point]"
5,O=C(Nc1cccc(S(=O)(=O)Nc2ccc(SC(F)F)cc2)c1)C1CCC1,"inconclusive: 31.6 µM [inhibitor, partial curve, poor fit]"
6,CNC(=O)/C(C#N)=C/c1ccc(-c2nc3ccccc3s2)o1,"inconclusive: 0.794 µM [activator, full curve, poor fit]"
7,COc1ccc(Oc2c(OC)cc([N+](=O)[O-])c3ncccc23)cc1,"inconclusive: 7.08 µM [inhibitor, partial curve, poor fit]"
8,COc1ccc(-c2cccc(C(=O)NCC(=O)O)c2)cc1,inactive
9,Cc1nc(CN(C)C(=O)c2cc(COc3ccc4ncccc4c3)on2)cs1,"inconclusive: 3.55 µM [inhibitor, partial curve, poor fit]"
10,COc1ccc(CN=Cc2c(O)[nH]c3ccccc23)cc1,"inconclusive: 10 µM [inhibitor, partial curve]"
11,Cc1nc2nc(CNC(=O)OC(C)(C)C)nn2c(C)c1CCC(=O)NCc1ccc(F)cc1,"inconclusive: 6.31 µM [inhibitor, single point]"
12,O=C(O)c1c(NC(=O)N2CCCC2)sc2c1CCCC2,"inconclusive: 35.5 µM [inhibitor, partial curve, poor fit]"
13,COc1ccc(-n2ncc3c(N4CCC(C(N)=O)CC4)ncnc32)cc1,"inconclusive: 6.51 µM [activator, single point]"
14,Cc1cc(OCCCCCNCCO)ccc1Cl,"inconclusive: 16.4 µM [inhibitor, single point]"
15,O=C1NC2(CCSC2)C(=O)N1CC(=O)N(Cc1ccccc1)C1CCS(=O)(=O)C1 (stereo not given),inactive
16,COCCCn1c(C)csc1=Nc1cccnc1,"inconclusive: 0.708 µM [inhibitor, single point]"
17,O=C(NC1CCCCCC1)C1c2ccccc2C(=O)N1Cc1ccco1 (stereo not given),inactive
18,CN(NC(=O)NN(C)C(=O)c1ccccc1)C(=O)c1ccccc1,"inconclusive: 10 µM [activator, partial curve, poor fit]"
19,Cc1nc(NC(=O)CCc2ccccc2)sc1C,"inconclusive: 35.5 µM [inhibitor, single point]"
20,CCC1CCC(C(=O)NC(C(=O)Nc2cccc(OC)c2)C(C)C)CC1 (stereo not given),"inconclusive: 35.5 µM [activator, single point]"
21,O=C(O)CCC(=O)Nc1ccc(Sc2ccc([N+](=O)[O-])cc2)cc1,"inconclusive: 0.206 µM [activator, single point]"

# Copied from the list:
# `Cc1cc(C)nc(/N=C(\NC(=O)C(C)(C)C)Nc2ccc(F)cc2)n1` – Potency: inconclusive: 3.16 µM [activator, partial curve]
# `O=C1CC(Sc2ncccn2)C(=O)N1c1ccccc1` (stereo not given) – Potency: inactive
